Source: paper PMC2731243, “Structure and Novel Functional Mechanism of Drosophila SNF in Sex-Lethal Splicing”
These are yes or no findings as the source states them, for the method shown. Some entries that bind do so weakly or less than the wild type.

Experiments:
[1] = molecular target: Sans-fille (SNF), full-length (Drosophila melanogaster) (UniProt P43332); assay: NMR (1H-15N HSQC of SNF at 0.4 mM and 2 mM); SNF raised from 0.4 mM to 2 mM; about half of the NH signals, mainly of RRM1, disappeared; data not shown; 50 mM PBS, pH 7.2, 298 K; both purified
[2] = molecular target: Sans-fille (SNF), full-length (Drosophila melanogaster) (UniProt P43332); assay: NMR (1H-15N HSQC of SNF at different concentrations); SNF at 0.035-0.39 mM; concentration-dependent line broadening of NH cross-peaks; 50 mM PBS, pH 7.2, 298 K; both purified

B1: Sans-fille (SNF), full-length (protein, UniProt P43332 1-216)
chain: MEMLPNQTIYINNLNEKIKKEELKKSLYAIFSQFGQILDIVALKTLKMRGQAFVIFKEIGSASNALRTMQGFPFYDKPMQIAYSKSDSDIVAKIKGTFKERPKKVKPPKPAPGTDEKKDKKKKPSSAENSNPNAQTEQPPNQILFLTNLPEETNEMMLSMLFNQFPGFKEVRLVPNRHDIAFVEFTTELQSNAAKEALQGFKITPTHAMKITFAKK
For B1, the binding [1] was “binds” and the binding [2] was “binds”.
